Assay results as given in article PMC4081824.
These are yes or no findings as the source states them, for the method shown. In cells and extracts the contact can be indirect. Some binding calls cover weakened binding; strength is not graded here. For some assays here: Sequences can lack the tags named with a protein.

The chains behind the UniProt entries cited, without tags or fusion partners. Residues count along the entry.
UniProt Q12846: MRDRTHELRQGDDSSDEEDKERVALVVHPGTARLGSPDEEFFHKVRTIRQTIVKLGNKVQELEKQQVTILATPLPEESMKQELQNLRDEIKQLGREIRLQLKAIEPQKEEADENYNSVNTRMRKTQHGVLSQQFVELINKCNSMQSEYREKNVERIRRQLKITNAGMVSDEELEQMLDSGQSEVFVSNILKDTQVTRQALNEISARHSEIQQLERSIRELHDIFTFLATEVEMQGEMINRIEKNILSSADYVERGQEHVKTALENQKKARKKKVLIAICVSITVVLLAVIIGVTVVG
UniProt Q5ZSQ3, residues 501-647: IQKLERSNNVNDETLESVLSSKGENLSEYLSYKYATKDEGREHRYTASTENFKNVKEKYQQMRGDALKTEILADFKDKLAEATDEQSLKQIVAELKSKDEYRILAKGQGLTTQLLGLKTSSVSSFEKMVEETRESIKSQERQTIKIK

Experiments:
[1] = target: T1, FLAG-tagged syntaxin 3 (UniProt Q13277); assay: co-IP
T1 sequence: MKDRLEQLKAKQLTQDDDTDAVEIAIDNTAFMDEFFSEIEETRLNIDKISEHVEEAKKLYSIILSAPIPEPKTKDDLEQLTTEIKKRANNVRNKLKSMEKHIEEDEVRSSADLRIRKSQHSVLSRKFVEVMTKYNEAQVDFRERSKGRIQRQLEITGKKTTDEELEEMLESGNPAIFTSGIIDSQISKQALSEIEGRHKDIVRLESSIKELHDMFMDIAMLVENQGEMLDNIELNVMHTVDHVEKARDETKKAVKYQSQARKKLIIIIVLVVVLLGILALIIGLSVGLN

[2] = target: FLAG-tagged syntaxin 4 (UniProt Q12846); assay: co-IP

Substance: GFP-tagged DrrA 501-647 (LEPR region, PI4P-binding domain) (from UniProt Q5ZSQ3 501-647) (domain or fragment)
- binding [1]: binds
- binding [2]: binds
